{
  "source": "patent US20090149482A1",
  "about": "“STEREOCHEMICALLY DEFINED DIPEPTIDE ESTERS OF ANTIVIRAL AGENTS FOR ENHANCED OCULAR TREATMENT” (priority 2001, published 2009)",
  "target": "T1, hPEPT1 (Homo sapiens, UniProt P46059)",
  "T1 construct": "endogenous in cells; host or cells: Caco-2 (human colon carcinoma, ATCC)",
  "T1 sequence (P46059 1-708)": "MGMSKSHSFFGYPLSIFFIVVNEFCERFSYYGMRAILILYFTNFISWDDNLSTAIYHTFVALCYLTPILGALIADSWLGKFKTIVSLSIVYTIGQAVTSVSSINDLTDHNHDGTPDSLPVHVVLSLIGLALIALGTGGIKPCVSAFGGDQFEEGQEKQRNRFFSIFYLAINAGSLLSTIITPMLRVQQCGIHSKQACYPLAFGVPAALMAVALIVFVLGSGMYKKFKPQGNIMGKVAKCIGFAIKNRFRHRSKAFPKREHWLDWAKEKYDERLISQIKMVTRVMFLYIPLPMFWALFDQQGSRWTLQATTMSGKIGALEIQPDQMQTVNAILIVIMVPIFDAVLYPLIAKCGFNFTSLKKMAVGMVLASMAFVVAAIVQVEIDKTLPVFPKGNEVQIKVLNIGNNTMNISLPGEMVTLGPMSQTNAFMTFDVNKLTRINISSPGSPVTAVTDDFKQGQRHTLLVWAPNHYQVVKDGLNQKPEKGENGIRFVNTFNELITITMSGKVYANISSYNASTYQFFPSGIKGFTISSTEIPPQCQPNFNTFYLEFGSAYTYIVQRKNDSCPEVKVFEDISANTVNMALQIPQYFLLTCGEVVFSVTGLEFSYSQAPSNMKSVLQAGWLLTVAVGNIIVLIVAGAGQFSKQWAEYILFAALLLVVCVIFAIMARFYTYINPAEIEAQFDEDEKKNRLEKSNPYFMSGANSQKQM",
  "test": "[3H] Glycylsarcosine uptake and its inhibition in Caco-2 cells (affinity towards peptide transporter)",
  "format": "cell-based",
  "conditions": "Gly-Sar with drug (10 mM), Lineweaver-Burk",
  "text": "Materials: [^3H] Glycylsarcosine (Gly-Sar; 4 Ci/mmol) was purchased from Moravek Biochemicals (Brea, Calif.) and [^14C] Mannitol (50 mCi/mmol) was supplied by Amersham (Piscataway, N.J.). Human colon carcinoma derived Caco-2 cells were obtained from American Type Culture Collection (ATCC, Rockville, Md.). The growth medium, Dulbecco's modified Eagle Medium was obtained from Life Technologies (Grand Island, N.Y.). […] Fetal bovine serum (FBS) was purchased from JRH Biosciences (Lenexa, Kans.). Culture flasks (75 cm^2 growth area), polyester Transwells® (pore size 0.4 Cm with diameter 6.5 mm) and polyester membranes (pore size 0.4 Cm) were procured from Costar (Bedford, Mass.). The buffer components and solvents were obtained from Fisher Scientific (St. Louis, Mo.). All the di-peptide esters of acyclovir were custom synthesized in our laboratory. […] Cell Culture: All cultures were maintained in humidified incubator at 37° C. with a 5% carbon dioxide in air atmosphere. […] The protein content of the cell suspension was determined by the method of Bradford using bovine serum albumin as the standard (BioRad protein estimation kit, Hercules, Calif.). […] The samples were stored at −80° C. until analyzed HPLC. […] The amount of protein in the cell lysate was measured by the BioRad protein estimation kit using bovine serum albumin as standard (BioRad Protein estimation Kit, Hercules, Calif.). […]",
  "data": [
    {"compound": "CC1=C(C(=O)O)N2C(=O)[C@@H](NC(=O)[C@H](N)c3ccccc3)[C@H]2SC1", "note": "[Cephalexin, cephalexin, reference compound]", "values": [
      {"measurement": "Vmax of Gly-Sar uptake in presence of the drug", "result": "0.101 ± 0.03", "unit": "µmol/min/mg"}
    ]}
  ]
}
